Drawing on PubChem BioAssay AID2685 (National Center for Advancing Translational Sciences (NCATS), 2010), this text covers cell number change and AC50 for 56 molecules.

Molecules are shown by their SMILES. Some of the results follow. Shown are side measurements of this screen, not its main read-out; they come without a call. Most of these compounds were active or inconclusive in the main read-out, so they are no random draw. Potencies come from curve fits of mixed quality, noted in brackets. Where a SMILES comes first, the peptide text is derived from it. [ ]: non-standard residue; d: D form. pGlu = O=C1CC[CH](C(=O)O)N1

This assay can be described thus: qHTS Assay for Lipid Storage Modulators in Drosophila S3 Cells.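 For cell number change: cells counted by Cell Tracker Red CMTPX staining in the red channel.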 To be noted: BODIPY lipid droplet fluorescence, 18-24 h; for cell number change: measured here: cell count max response, cells fed with added oleic acid. Summed up: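 Drosophila S3 cells got compounds at several concentrations plus oleic acid (400 uM solution). Laser-scanning cytometry with 488 nm excitation read lipid droplets at 500-530 nm and cells at 575-640 nm. Percent activity was relative to 20 uM Triacsin C.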
(In general: qHTS replaces the single test concentration by a dilution series.)

The mark [1] stands for this setting: measured here: cell number channel AC50, cells fed with added oleic acid.
The mark [2] stands for this setting: measured here: lipid fluorescence (Fed channel) AC50, cells fed with added oleic acid.

Consider `CCCCCCCOc1ccc(OC(=O)c2cccnc2)cc1`, for which the cell number change was -15.3%. Also, the AC50 under setting [1] is 0.103 µM [falling, full curve, poor fit].

In the case of `O=C(O)c1cccc(NC(=O)c2cn(-c3ccccc3)nc2-c2ccc(F)cc2)c1`, the cell number change was 6.74%. Also, under setting [2], the AC50 was 0.58 µM [falling, single point].

As to `COc1cc(OC)cc(C(=O)NCC(=O)OCC(=O)C(C)(C)C)c1`, the cell number change is -20%. In addition, under setting [2], the concentration at half-maximal activity (AC50) was 0.291 µM [falling, full curve, poor fit].

Take `CN(CC(=O)Nc1ccccc1C(F)(F)F)C(=O)c1cc(Cl)nc2ccccc12`: the cell number change stood at 4.64%.

Consider `COc1ccc(NC(=O)CN(C)C(=O)c2ccc(S(=O)(=O)Nc3ccccc3C)cc2)cc1`, for which the cell number change is -75%. Also, under setting [1], the AC50 was 14.6 µM [falling, partial curve, poor fit].

Regarding `CCc1ccc(S(=O)(=O)NCCc2cn3ccsc3n2)s1`, the cell number change was -0.68%. Also, the half-maximal activity concentration (AC50) under setting [2] is 2.91 µM [rising, full curve].

Consider `COc1cc(/C=C2\COC/C(=C\c3ccc(O)c(OC)c3)C2=O)ccc1O`, for which the cell number change is -56.3%. Under setting [1], the AC50 was 20.6 µM [falling, partial curve]. In addition, the AC50 under setting [2] was 20.6 µM [falling, partial curve].

On to `Cc1cccc(OCc2nnc(NC(=O)c3cccs3)s2)c1`, for which the AC50 under setting [2] was 0.651 µM [falling, single point].

For `Cc1cc(=O)[nH]c(SCc2nc3ccc([N+](=O)[O-])cc3[nH]2)n1`, the cell number change is 12.8%. Under setting [1], the AC50 was 0.461 µM [falling, single point]. For the same molecule, under setting [2], the AC50 was 0.651 µM [falling, single point].

On to `CC(OC(=O)c1ccc(-c2ccc(O)cc2)cc1)C(=O)NC1CCCCC1C` (stereo not given), for which the cell number change was -4.87%. The AC50 under setting [2] is 29.1 µM [falling, partial curve, poor fit].

As to `COCCCNC(=S)NC(=O)c1ccccc1`, the cell number change was -55%. Also, the AC50 under setting [1] is 29.1 µM [falling, single point].

`CCOC(=O)CSc1nc(N)cc(=O)[nH]1`: the cell number change worked out at 5.8%. Also, under setting [2], the concentration at half-maximal activity (AC50) is 0.00517 µM [falling, full curve, poor fit].

On to `Cc1cc(C)c2[nH]c(O)c(N=NC(=S)NCC3CCCO3)c2c1` (stereo not given), for which the cell number change was 25.7%. In addition, the AC50 under setting [2] is 6.51 µM [rising, single point].

On to `CCOc1ccc2nc(SCC(=O)Nc3ccc(S(=O)(=O)N4CCCC4)cc3)c(C)cc2c1`, for which, under setting [2], the AC50 was 4.61 µM [falling, single point].

For `O=C(N/N=C/C=C/c1cccc([N+](=O)[O-])c1)c1ccncc1`, the cell number change turned out to be 9.54%. For the same molecule, the AC50 under setting [2] was 0.0146 µM [falling, full curve].

As to `O=C1CCc2ccc(OCCCCN3CCN(c4cccc(Cl)c4Cl)CC3)cc2N1`, the cell number change was -76.5%. In addition, the AC50 under setting [1] is 20.6 µM [falling, single point]. Also, under setting [2], the AC50 is 18.4 µM [falling, single point].

As to `COc1ccc(N2CCN(C(=O)c3ccc(CS(=O)(=O)c4ccc(OC)cc4)o3)CC2)cc1`, under setting [1], the AC50 was 2.06 µM [rising, partial curve].

As to `CC(C)CC(NC(=O)C(CO)NC(=O)C1CCC(=O)N1)C(N)=O` (stereo not drawn) ([pGlu]-Ser-Leu-NH2; configuration not given here), the cell number change was -39.2%. For the same molecule, under setting [1], the AC50 was 0.461 µM [falling, full curve].

Take `CCOC(=O)/C=C1\SCC(=O)N1Cc1ccc(Br)cc1`: the cell number change was -26.8%. Moreover, the half-maximal activity concentration (AC50) under setting [2] is 7.31 µM [falling, partial curve].

`CC(C)(C)c1ccc(/C=N/Nc2nncn2N)cc1`: the cell number change was -13.3%.

With `CCC(CC)c1nnc(NC(=O)c2ccc(S(=O)(=O)N3CCc4ccccc4C3)cc2)s1`, the cell number change is 131%. The AC50 under setting [1] was 20.6 µM [rising, partial curve, poor fit]. Under setting [2], the AC50 was 0.366 µM [rising, partial curve, poor fit].

In the case of `CCCCn1c(SCC(=O)c2ccccc2)nc2ccsc2c1=O`, the cell number change was determined as 35.1%. The AC50 under setting [1] is 6.51 µM [rising, partial curve]. For the same molecule, the AC50 under setting [2] is 16.4 µM [rising, single point].

`Cc1ccc(C(=O)NC(C)c2ccc(-n3ccnc3)cc2)cc1` (stereo not given): the cell number change came out at 15.8%. Further, the AC50 under setting [2] is 29.1 µM [rising, single point].

For the molecule `COc1cccc(CNc2ccc([N+](=O)[O-])cc2Cl)c1O`, the cell number change was -14%. The AC50 under setting [1] was 6.51 µM [falling, single point]. Besides, the AC50 under setting [2] is 6.51 µM [falling, single point].

For the molecule `CCCCN(C(=O)c1cccc(N2C(=O)c3ccccc3C2=O)c1)c1c(N)n(CC(C)C)c(=O)[nH]c1=O`, the cell number change stood at 9.35%. In addition, under setting [2], the AC50 is 6.51 µM [rising, single point].

Regarding `Cc1ccc(Oc2ccccc2/C=C2\SC(=O)N(C)C2=O)cc1`, the cell number change was -9.82%. For the same molecule, under setting [2], the AC50 was 1.46 µM [falling, full curve, poor fit].

With `CCCCOC(=O)Nc1ccc(C(C)C)cc1`, the cell number change is -34.3%. Also, the AC50 under setting [1] is 14.6 µM [falling, partial curve, poor fit]. Under setting [2], the AC50 is 16.4 µM [falling, partial curve, poor fit].

With `COc1ccc(C)cc1N1CC(C(=O)OCc2nc(N)nc(Nc3ccccc3C)n2)CC1=O` (stereo not given), the cell number change is 18.1%.

As to `Cc1ccc(N(C)S(=O)(=O)c2cc3c(cc2C)NC(=O)CO3)cc1`, the cell number change amounted to 3.46%. Under setting [2], the AC50 was 18.4 µM [falling, single point].

On to `Cc1c(N=Cc2ccc(O)c(Br)c2)cccc1[N+](=O)[O-]`, for which the cell number change came to 23.1%. Also, the AC50 under setting [2] was 3.66 µM [rising, full curve, poor fit].

As for `COc1ccc(S(=O)(=O)N2CCOC23CCN(S(C)(=O)=O)CC3)cc1`, the cell number change is 24.5%. The AC50 under setting [2] is 18.4 µM [rising, single point].

On to `O=C(NCc1n[nH]c(=S)n1-c1ccc([N+](=O)[O-])cc1)c1ccc(S(=O)(=O)N2CCOCC2)cc1`, for which the cell number change is -9.06%. Moreover, the AC50 under setting [1] was 7.31 µM [falling, partial curve, poor fit]. The AC50 under setting [2] is 0.103 µM [falling, full curve, poor fit].

On to `O=C1CC(c2cccc(Cl)c2)CC(O)=C1C=Nc1ccccc1` (stereo not given), for which the cell number change is 30.6%. Further, the half-maximal activity concentration (AC50) under setting [1] is 29.1 µM [rising, single point]. For the same molecule, the AC50 under setting [2] was 4.11 µM [falling, partial curve, poor fit].

In the case of `Cc1ccc(-c2c(C#N)c(N)n(-c3ccc(C)cc3)c(=O)c2C#N)cc1`, the cell number change was determined as 8.48%. Moreover, the AC50 under setting [2] is 16.4 µM [falling, single point].

Regarding `O=C(COc1ccccc1)NNC(=O)c1ccc(Cl)cc1`, the cell number change turned out to be 5.64%. Under setting [2], the AC50 was 16.4 µM [rising, single point].

Consider `OC(CN1CCN(Cc2ccccc2)CC1)Cn1c2ccccc2c2ccccc21` (stereo not given), for which the cell number change is -47.3%. Besides, the concentration at half-maximal activity (AC50) under setting [2] is 32.6 µM [falling, single point].

Consider `CNCc1ccccc1Sc1ccc(O)c(O)c1`, for which the cell number change was -8.68%. The AC50 under setting [2] was 29.1 µM [falling, single point].

In the case of `O=C(C1CCC(Cn2c(=S)[nH]c3ccccc3c2=O)CC1)N1CCOCC1` (stereo not given), the cell number change is -20.6%.

Take `CSc1nncn1/N=C/c1ccc([N+](=O)[O-])cc1`: the cell number change is -142%. For the same molecule, the AC50 under setting [1] was 29.1 µM [falling, partial curve]. Besides, the AC50 under setting [2] is 23.1 µM [falling, single point].

For the molecule `CC(C)(C)c1ccc(C(=O)NNC(=O)c2ccncc2)cc1`, the cell number change is -2.62%. Also, under setting [2], the concentration at half-maximal activity (AC50) is 29.1 µM [rising, single point].

`Cc1nc(C)c(-c2csc(Nc3ccc(O)c(C(=O)O)c3)n2)s1`: the cell number change was -10.4%. In addition, the AC50 under setting [2] is 29.1 µM [rising, single point].

In the case of `O=C(COC(=O)CN1C(=O)C2CCCCC2C1=O)NC1CCS(=O)(=O)C1` (stereo not given), the cell number change was -3.49%. For the same molecule, the AC50 under setting [1] was 5.17 µM [falling, partial curve]. Also, the AC50 under setting [2] was 29.1 µM [falling, partial curve, poor fit].

With `Cc1cc(C)nc(Nc2nc(-c3ccccc3)cs2)n1`, the cell number change is -22%. The half-maximal activity concentration (AC50) under setting [2] is 6.51 µM [falling, full curve, poor fit].

Take `COc1ccc(N(C(=O)c2cccc(OC)c2OC)C2C=CS(=O)(=O)C2)c(OC)c1` (stereo not given): the concentration at half-maximal activity (AC50) runs as follows: under setting [1], 0.092 µM [falling, full curve, poor fit]; under setting [2], 0.651 µM [falling, single point].

`O=C(O)c1nn2c(C(F)(F)F)cc(-c3cccs3)nc2c1Cl`: the cell number change came to 11.5%. Moreover, the AC50 under setting [2] was 2.59 µM [rising, single point].

Consider `COc1ccc(N=NC2C(=O)N(c3ccccc3)N=C2C)cc1` (stereo not given), for which the cell number change was -31.3%. Also, the AC50 under setting [1] was 7.31 µM [falling, full curve, poor fit]. In addition, the AC50 under setting [2] is 2.91 µM [falling, full curve].

With `CCN(CC)S(=O)(=O)c1cccc(C(=O)/C=C2/N(C)c3ccccc3C2(C)C)c1`, the cell number change was determined as 13.9%. Also, the AC50 under setting [2] is 6.51 µM [rising, single point].

Turning to `Cn1nnnc1SCC(=O)Nc1nc(-c2ccc(F)c(F)c2)cs1`, the AC50 under setting [1] was 6.51 µM [rising, single point].

Regarding `c1ccc2c3c([nH]c2c1)C1(CCCCC1)NCC3`, the cell number change was -47.7%. The AC50 under setting [1] is 29.1 µM [falling, single point].

`O=C(NCc1cccnc1)c1ccc(Cl)c(S(=O)(=O)N2CCCCCC2)c1`: the cell number change was 4.86%. Also, the AC50 under setting [1] was 0.00517 µM [rising, full curve, poor fit].

With `Cc1ccc(S(=O)(=O)N(C(=O)c2ccncc2)c2ccc3oc4c(c3c2)CCCC4)cc1[N+](=O)[O-]`, the cell number change was determined as 8.79%. For the same molecule, under setting [2], the AC50 was 32.6 µM [falling, single point].

For `O=C(CCn1nc(-c2ccccc2)ccc1=O)N1CCCC1`, the cell number change came to 20.7%. For the same molecule, the AC50 under setting [1] is 4.61 µM [falling, partial curve]. The AC50 under setting [2] is 2.59 µM [falling, full curve].

For the molecule `c1ccc(CCn2nnnc2C(c2cccs2)N2CCN(Cc3ccc4c(c3)OCO4)CC2)cc1` (stereo not given), the cell number change is -17%. Further, under setting [1], the AC50 was 0.184 µM [rising, full curve, poor fit].

On to `O=C(Nc1ccc2oc(-c3cccc(F)c3)nc2c1)c1ccccc1F`, for which the cell number change is -5.55%.

For the molecule `COc1cc2c(cc1OC)C1O[C@](CCCCN3C(=O)c4ccccc4C3=O)(C2)OC2=C1C(=O)CCC2`, the cell number change worked out at 30.6%.

As to `COc1ccc(NC2=CC(=O)CC(C)(C)C2)cc1`, the cell number change came out at 12%. Under setting [2], the AC50 is 2.91 µM [rising, partial curve, poor fit].

In general, AC50 refers to the concentration giving half of the maximal activity seen. Higher therefore signals weaker potency.
